Taken from: PubChem BioAssay AID686943 (Drosophila RNAi Screening Center, 2013)
The deposit covers about 23,000 reagents; shown is an unselected part of those that have a named target and a result. 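Extra replicates exist only for a retested subset of genes; insulin dose and duration not given; both raised and lowered dpERK matter.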 A plus sign joins genes that one reagent is predicted to hit. The record does not give: the amount of reagent, the time to read-out.

- Assay: 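Search across the genome for regulators of signalling from receptor tyrosine kinase to ERK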 (primary screen)
- Cells: Drosophila S2R+ haemocyte-like cells expressing YFP-tagged ERK (Rolled)
- Reagents: long dsRNA against Drosophila genes
- Challenge: insulin stimulation versus unstimulated cells; dose and duration not given
- Measurement: 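Antibody staining for doubly phosphorylated ERK divided by ERK-YFP signal, as plate z-scores, in insulin-treated and untreated cells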
- Scale: replicate 1, z-score of dpERK with insulin and replicate 2, z-score of dpERK with insulin: higher = more active ERK per ERK-YFP after insulin; replicate 1, z-score of dpERK under basal conditions: higher = more basal active ERK per ERK-YFP; replicate 1, z-score of ERK-YFP with insulin: higher = more YFP-tagged ERK signal

target gene | DRSC id | replicate 1, z-score of dpERK with insulin | replicate 2, z-score of dpERK with insulin | replicate 1, z-score of dpERK under basal conditions | replicate 1, z-score of ERK-YFP with insulin
TwdlU (TweedleU) | DRSC12224 | 0.09 | 0.62 | -0.77 | 0.14
CG10116 | DRSC09700 | 0.31 | 0.43 | 0.06 | 0.94
Uros2 (Uroporphyrinogen III synthase 2) | DRSC16505 | 0.28 | 0.45 | 0.55 | 0.56
Vdup1 (Vitamin D[[3]] up-regulated protein 1) | DRSC08586 | -0.45 | -1.41 | -0.67 | 0
Uba3 (Ubiquitin-like activating enzyme 3) | DRSC06377 | 0.5 | -0.1 | 0.98 | 0.75
DCP2 (Decapping protein 2) | DRSC09399 | 0.17 | -0.15 | 1.08 | -0.55
DCP2 (Decapping protein 2) | DRSC10597 | 0.17 | -0.41 | -0.8 | -2.5
tutl (turtle) | DRSC00441 | 0.14 | 0.63 | -0.51 | -0.54
tutl (turtle) | DRSC00442 | 1.24 | 0.4 | 2.19 | -0.43
tutl (turtle) | DRSC00443 | -1.49 | 0.84 | -0.21 | -0.67
CG7362 | DRSC16236 | 0 | 0.95 | -2.16 | 0
sug (sugarbabe) | DRSC06855 | 0.69 | -0.17 | 0.26 | -0.7
CG4367 | DRSC15568 | 0.1 | -0.31 | -0.12 | 0.05
CG32260 | DRSC08084 | -0.13 | -0.21 | -0.47 | 0.77
Ir60b (Ionotropic receptor 60b) | DRSC04217 | 0.78 | 0.36 | -0.21 | 0.31
CG7102 | DRSC02647 | 0.75 | 0.37 | 0.01 | 0.47
CG7102 | DRSC03007 | -0.48 | -0.26 | -0.52 | 0.01
Ranbp21 | DRSC19447 | 0.28 | -0.15 | -0.36 | -0.84
CG13711 | DRSC08320 | -0.49 | 0 | -1.05 | 0.45
CG7557 | DRSC10878 | 0.28 | 0.2 | -0.26 | -0.25
stumps | DRSC13045 | -0.09 | 0.1 | -0.13 | 0.09
stumps | DRSC15332 | -2.76 | -0.03 | 1.54 | 0.59
stumps | DRSC17073 | 0.7 | -0.32 | 0.49 | 0.44
Nckx30C | DRSC02686 | 0.18 | 0.07 | 0 | 0.97
Nckx30C | DRSC02687 | -0.36 | 0.02 | -1.08 | 1.59
Nckx30C | DRSC02688 | -1.45 | -0.29 | -0.15 | 0.27
Nckx30C | DRSC02689 | -1.17 | -1.11 | -1.03 | 0.25
CG46301 | DRSC01916 | 0.1 | -0.3 | 0.64 | 0.03
CG2218 | DRSC15428 | 0.91 | -0.42 | -0.24 | -0.24
CG7728 | DRSC10907 | -0.01 | -0.32 | -0.31 | -2.07
CG7182 | DRSC10780 | -0.72 | -0.52 | 0.26 | -0.79
btl (breathless) | DRSC11331 | 1.88 | 0.08 | 2.59 | 1.12
vir-1 (virus-induced RNA 1) | DRSC02501 | -0.12 | 0.08 | 0.17 | -0.3
vir-1 (virus-induced RNA 1) | DRSC02863 | -0.23 | 0.71 | -0.28 | -3.63
CG12546 + CG14452 | DRSC11709 | -0.17 | -0.38 | -0.83 | -0.78
CG17475 | DRSC15238 | -0.22 | 0.16 | -0.01 | 0.32
CG31342 | DRSC15349 | -0.38 | -0.62 | -0.18 | 0.67
CG31342 | DRSC16246 | 0.5 | -1.61 | -0.45 | -1.05
CG7488 | DRSC16250 | 1.1 | 0.78 | 0.94 | -0.37
CG34135 + Nasp + CG11768 | DRSC14377 | 1.4 | 1.08 | -0.06 | 1.07
CG34135 + Nasp + CG11768 | DRSC16397 | -0.78 | -0.78 | -1.6 | -3.22
cwo (clockwork orange) | DRSC17072 | -0.8 | -0.64 | 1.58 | 0.85
Ir10a (Ionotropic receptor 10a) | DRSC18891 | 1.27 | 0.62 | 0.3 | 0.11
Ir10a (Ionotropic receptor 10a) | DRSC19478 | -0.18 | 0.08 | 1.04 | 0.23
Ir10a (Ionotropic receptor 10a) | DRSC19479 | 0.98 | 0.12 | 0.16 | 0.48
CG11029 | DRSC02119 | -0.17 | -0.21 | -0.54 | 0.2
CG5500 | DRSC15820 | 0.42 | -0.35 | -0.57 | 0.39
CG3610 | DRSC15502 | 1.1 | 0.75 | 0.28 | -0.02
beta-Man (beta-Mannosidase) | DRSC12208 | -0.05 | -0.14 | -0.39 | -0.14
beta-Man (beta-Mannosidase) | DRSC12209 | -0.07 | 0.42 | 1.51 | 0.59
Atg10 + CG18853 + CG12822 | DRSC20757 | 0.51 | 0.42 | -1.69 | 0.92
ry (rosy) | DRSC17048 | -0.33 | -0.35 | 0.1 | 0.17
CG43109 | DRSC05754 | 2.55 | 1.12 | -0.36 | 0.65
twz (tiwaz) | DRSC04069 | 0.13 | -0.6 | -0.01 | 0.38
Sb (Stubble) | DRSC16851 | 0.03 | 0.39 | 1.18 | 1.16
PIG-X (Phosphatidylinositol glycan anchor biosynthesis class X) | DRSC22721 | 0.05 | 0.02 | 0.33 | -0.65
His4r (Histone H4 replacement) | DRSC16703 | -1.83 | -2.96 | -3.96 | -6.5

Looked up above.
Under “replicate 2, z-score of dpERK with insulin”, ry (rosy) [DRSC17048] has -0.35
Entry of CG4367 [DRSC15568] in “replicate 2, z-score of dpERK with insulin”: -0.31
For “replicate 2, z-score of dpERK with insulin”, CG32260 [DRSC08084] is entered as -0.21
